Reference: the supplement of paper PMC10849652
This is one part of the list.

Amino acid sequences for entries named in this document (tags omitted). A change or cut given only in a name is not applied to a line headed by its entry.
UniProt Q7L1Q6: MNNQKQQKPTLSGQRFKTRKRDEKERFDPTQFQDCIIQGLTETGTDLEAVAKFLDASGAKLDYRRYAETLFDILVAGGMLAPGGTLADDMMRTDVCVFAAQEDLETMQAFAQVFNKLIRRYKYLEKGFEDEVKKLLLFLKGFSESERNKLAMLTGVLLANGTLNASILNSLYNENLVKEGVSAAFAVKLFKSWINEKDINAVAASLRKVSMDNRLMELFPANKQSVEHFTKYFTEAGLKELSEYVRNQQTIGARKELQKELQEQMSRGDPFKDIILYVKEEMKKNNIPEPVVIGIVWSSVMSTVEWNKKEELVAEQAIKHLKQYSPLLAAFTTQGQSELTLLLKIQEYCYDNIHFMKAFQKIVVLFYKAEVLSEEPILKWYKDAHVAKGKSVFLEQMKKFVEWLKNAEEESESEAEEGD
UniProt P04003: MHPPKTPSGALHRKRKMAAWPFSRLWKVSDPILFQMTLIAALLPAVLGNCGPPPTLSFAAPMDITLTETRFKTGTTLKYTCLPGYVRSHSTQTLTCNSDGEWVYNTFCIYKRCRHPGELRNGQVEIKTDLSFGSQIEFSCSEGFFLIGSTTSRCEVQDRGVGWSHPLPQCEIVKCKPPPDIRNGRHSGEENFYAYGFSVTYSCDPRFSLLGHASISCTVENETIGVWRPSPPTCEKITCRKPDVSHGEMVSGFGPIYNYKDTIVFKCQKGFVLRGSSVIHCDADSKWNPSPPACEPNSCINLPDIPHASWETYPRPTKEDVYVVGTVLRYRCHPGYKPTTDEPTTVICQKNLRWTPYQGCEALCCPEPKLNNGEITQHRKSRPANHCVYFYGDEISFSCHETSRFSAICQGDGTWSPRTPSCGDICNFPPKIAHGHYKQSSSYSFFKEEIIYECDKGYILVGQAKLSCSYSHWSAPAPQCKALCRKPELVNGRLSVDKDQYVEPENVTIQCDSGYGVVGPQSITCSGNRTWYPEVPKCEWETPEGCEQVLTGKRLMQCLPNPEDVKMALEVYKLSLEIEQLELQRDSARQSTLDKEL
UniProt Q9BRD0: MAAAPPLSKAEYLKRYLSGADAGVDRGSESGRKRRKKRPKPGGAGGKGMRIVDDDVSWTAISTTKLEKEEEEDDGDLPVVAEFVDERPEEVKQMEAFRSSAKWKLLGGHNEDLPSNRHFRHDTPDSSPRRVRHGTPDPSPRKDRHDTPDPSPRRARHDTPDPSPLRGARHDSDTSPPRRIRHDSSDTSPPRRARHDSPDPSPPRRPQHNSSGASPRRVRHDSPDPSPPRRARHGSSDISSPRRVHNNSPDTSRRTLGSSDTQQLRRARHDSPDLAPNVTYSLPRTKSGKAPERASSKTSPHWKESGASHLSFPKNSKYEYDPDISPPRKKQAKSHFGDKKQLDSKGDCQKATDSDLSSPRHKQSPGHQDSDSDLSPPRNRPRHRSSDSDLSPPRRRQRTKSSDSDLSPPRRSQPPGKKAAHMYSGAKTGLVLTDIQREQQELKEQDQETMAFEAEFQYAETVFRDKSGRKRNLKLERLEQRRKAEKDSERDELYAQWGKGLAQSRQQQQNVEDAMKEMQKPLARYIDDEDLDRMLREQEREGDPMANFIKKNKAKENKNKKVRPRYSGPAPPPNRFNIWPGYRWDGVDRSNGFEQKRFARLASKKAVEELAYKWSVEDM
UniProt Q9H425: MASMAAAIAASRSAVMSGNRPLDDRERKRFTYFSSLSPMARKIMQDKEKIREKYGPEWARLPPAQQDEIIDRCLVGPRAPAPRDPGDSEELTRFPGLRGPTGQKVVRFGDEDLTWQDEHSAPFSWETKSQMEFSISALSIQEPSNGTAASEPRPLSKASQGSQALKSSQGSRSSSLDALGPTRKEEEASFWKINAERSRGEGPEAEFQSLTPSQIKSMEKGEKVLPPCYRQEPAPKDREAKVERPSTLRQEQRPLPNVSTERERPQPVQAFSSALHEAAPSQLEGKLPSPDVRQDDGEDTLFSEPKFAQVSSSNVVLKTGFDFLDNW
UniProt P0C0L4: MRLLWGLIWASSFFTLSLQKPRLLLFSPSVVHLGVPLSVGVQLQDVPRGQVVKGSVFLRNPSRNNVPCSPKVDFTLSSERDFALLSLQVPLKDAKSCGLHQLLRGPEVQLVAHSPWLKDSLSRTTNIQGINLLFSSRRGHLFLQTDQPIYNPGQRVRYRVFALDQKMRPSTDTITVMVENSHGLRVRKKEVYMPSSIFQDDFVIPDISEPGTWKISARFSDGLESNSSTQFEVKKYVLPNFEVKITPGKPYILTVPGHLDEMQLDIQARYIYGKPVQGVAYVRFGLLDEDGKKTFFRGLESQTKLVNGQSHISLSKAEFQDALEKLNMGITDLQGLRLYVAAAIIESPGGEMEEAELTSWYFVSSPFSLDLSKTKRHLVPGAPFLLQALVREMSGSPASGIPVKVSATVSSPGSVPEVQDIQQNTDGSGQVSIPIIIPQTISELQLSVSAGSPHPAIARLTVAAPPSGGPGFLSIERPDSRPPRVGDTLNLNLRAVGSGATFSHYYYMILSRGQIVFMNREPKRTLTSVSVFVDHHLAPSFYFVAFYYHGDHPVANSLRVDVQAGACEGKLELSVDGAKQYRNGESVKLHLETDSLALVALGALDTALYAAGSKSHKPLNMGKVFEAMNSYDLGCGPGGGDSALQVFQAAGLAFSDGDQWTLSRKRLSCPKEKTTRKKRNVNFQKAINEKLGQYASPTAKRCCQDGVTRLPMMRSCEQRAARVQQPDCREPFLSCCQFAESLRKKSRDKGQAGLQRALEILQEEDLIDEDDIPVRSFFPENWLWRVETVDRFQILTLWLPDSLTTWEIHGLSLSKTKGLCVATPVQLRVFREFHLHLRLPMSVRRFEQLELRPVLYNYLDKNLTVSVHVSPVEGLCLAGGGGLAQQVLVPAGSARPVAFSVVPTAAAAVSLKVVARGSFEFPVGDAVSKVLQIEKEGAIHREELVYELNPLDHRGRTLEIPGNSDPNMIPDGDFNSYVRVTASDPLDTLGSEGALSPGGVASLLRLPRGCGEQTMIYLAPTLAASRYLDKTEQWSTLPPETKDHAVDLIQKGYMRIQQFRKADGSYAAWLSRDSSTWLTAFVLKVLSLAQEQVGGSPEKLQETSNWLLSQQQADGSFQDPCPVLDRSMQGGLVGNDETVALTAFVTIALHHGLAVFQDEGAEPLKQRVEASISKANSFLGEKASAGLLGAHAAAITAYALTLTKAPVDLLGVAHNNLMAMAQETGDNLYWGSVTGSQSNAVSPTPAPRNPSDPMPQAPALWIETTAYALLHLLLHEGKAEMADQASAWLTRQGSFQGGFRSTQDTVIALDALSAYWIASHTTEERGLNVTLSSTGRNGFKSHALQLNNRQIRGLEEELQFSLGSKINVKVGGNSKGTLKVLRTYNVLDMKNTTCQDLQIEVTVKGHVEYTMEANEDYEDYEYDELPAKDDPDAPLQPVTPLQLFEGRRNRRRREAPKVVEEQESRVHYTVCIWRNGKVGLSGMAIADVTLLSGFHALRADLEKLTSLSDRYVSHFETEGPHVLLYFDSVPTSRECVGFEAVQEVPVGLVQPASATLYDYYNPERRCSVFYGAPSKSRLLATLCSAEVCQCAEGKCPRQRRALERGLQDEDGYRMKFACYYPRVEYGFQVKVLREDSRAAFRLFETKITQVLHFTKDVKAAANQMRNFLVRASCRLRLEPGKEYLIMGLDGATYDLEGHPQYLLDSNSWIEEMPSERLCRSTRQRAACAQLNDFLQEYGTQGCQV
UniProt Q96LT7: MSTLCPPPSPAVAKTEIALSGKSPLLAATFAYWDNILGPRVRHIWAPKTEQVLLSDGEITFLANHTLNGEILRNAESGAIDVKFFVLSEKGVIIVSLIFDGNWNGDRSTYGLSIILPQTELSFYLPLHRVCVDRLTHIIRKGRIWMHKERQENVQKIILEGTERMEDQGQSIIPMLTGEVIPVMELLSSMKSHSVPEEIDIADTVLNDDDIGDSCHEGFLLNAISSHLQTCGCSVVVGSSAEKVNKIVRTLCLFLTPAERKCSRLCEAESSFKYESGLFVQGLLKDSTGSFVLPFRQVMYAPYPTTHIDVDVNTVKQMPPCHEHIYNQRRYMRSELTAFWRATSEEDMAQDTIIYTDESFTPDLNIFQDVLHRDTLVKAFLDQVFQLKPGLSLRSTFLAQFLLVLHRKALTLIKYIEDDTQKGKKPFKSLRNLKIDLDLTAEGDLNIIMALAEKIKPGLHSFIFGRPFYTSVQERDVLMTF
UniProt Q6P5X5: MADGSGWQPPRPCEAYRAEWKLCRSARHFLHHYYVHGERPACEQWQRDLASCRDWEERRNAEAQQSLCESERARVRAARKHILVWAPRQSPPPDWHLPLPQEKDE
UniProt Q96KE9: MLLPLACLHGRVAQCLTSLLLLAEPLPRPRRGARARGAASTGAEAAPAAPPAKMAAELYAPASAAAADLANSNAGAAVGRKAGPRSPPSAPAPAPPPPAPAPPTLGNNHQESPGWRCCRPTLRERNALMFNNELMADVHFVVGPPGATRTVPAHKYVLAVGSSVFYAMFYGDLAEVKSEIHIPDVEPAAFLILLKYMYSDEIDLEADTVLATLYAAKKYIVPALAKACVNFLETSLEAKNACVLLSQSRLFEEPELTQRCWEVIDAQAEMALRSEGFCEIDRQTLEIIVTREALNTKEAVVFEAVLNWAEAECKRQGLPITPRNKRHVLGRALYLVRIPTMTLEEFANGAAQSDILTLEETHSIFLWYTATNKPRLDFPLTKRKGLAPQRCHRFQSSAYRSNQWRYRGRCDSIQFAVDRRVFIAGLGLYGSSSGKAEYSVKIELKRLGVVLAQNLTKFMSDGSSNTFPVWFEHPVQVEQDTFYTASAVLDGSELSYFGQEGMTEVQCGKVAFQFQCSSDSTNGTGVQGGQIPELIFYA
UniProt Q7KYR7: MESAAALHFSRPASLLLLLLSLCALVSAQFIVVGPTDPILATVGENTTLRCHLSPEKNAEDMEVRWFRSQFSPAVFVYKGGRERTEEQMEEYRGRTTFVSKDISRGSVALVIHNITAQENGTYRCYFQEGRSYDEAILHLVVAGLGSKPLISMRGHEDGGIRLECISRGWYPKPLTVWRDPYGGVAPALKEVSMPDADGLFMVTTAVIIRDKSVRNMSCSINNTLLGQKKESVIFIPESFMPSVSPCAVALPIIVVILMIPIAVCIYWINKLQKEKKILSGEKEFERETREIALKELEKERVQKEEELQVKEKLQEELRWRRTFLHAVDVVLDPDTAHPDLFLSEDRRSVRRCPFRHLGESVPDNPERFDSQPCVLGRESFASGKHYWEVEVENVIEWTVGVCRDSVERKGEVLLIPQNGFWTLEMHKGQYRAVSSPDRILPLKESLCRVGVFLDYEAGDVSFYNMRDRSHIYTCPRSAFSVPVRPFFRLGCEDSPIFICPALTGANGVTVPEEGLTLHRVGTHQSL
UniProt Q3KRA6: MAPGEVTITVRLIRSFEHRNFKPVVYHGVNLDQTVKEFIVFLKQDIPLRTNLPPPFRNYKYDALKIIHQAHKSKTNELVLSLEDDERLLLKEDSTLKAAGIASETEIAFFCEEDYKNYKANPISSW
UniProt P00915: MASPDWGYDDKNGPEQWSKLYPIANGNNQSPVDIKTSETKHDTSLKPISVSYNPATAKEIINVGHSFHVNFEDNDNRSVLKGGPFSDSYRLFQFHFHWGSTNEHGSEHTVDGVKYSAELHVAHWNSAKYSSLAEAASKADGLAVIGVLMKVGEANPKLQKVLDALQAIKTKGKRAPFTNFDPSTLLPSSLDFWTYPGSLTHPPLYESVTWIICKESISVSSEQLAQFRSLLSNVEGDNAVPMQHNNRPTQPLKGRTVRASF
UniProt Q9BV19: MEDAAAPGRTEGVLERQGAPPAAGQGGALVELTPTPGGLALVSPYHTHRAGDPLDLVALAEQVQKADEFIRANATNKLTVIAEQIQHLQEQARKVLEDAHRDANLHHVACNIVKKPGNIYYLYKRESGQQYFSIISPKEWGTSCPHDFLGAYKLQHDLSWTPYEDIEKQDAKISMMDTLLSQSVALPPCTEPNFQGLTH
UniProt Q96RR4, whole entry, looked up: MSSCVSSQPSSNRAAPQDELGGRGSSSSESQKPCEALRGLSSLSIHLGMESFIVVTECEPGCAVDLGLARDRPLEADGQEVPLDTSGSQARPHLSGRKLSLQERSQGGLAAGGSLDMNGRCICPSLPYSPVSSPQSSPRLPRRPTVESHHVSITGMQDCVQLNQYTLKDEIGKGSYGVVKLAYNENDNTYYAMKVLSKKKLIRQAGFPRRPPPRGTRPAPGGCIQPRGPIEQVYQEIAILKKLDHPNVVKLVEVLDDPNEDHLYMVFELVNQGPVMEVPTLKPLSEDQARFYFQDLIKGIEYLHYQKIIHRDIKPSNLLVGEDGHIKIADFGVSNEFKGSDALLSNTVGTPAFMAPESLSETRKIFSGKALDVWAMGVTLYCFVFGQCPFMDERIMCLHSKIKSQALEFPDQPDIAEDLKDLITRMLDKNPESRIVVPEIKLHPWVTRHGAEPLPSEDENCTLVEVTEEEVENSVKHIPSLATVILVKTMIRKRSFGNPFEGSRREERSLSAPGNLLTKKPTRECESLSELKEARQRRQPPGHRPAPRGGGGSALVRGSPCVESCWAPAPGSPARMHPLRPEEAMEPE

Experiments:
Test in all cases: log2 fold change, soluble protein after heating vs DMSO (PISA); higher = thermal stabilisation; K562 cells, 10 uM, 30 min; active = over 0.2 and 3.5 SD of the protein, either way, in both replicates (recomputed)
[1] = compound: CS(=O)(=O)c1ccc(-c2cnc(N)c(C(=O)Nc3ccccc3)n2)cc1
How it was run: (§1)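 K562 cells (2×10^6 cells/mL) were treated with 10 μM compound for 30 min, and aliquots were heated for 3 min over 48°C-58°C. Pooled aliquots were extracted in PBS with 0.5% NP-40 at 4°C, and the supernatant after 21,000xg for 90 min was measured by TMTpro 16plex LC-MS/MS with channel sums equalised. Reported thermal stability, relative to control samples and from duplicates, is a log2 fold change.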

[2] = compound: C[C@@H](Oc1cc(-c2cnn(C3CCNCC3)c2)cnc1N)c1c(Cl)ccc(F)c1Cl [crizotinib]
How it was run: as §1

[3] = compound: C[C@@H]1COCCN1C2=NC(=NC(=C2)C3(CC3)S(=O)(=O)C)C4=C5C=CNC5=CC=C4
How it was run: as §1

[4] = compound: C[C@H](C1=CC=C(C=C1)C(=O)NC2=C3C=CNC3=NC=C2)N
How it was run: as §1

[5] = compound: Cc1cc(Nc2cc(CN3CCOCC3)c3nc(C)c(Cc4ccc(Cl)cc4F)n3n2)n[nH]1 [gandotinib]
How it was run: as §1

[6] = compound: Cc1cc(SCc2sc(-c3ccc(C(F)(F)F)cc3)nc2C)ccc1OCC(=O)O
How it was run: as §1

[7] = compound: Cc1ccc(-n2nc(C(C)(C)C)cc2NC(=O)Nc2ccc(OCCN3CCOCC3)c3ccccc23)cc1 [doramapimod]
How it was run: as §1

[8] = compound: Cc1ccc(C(=O)N(CCCN)[C@@H](c2nc3cc(Cl)ccc3c(=O)n2Cc2ccccc2)C(C)C)cc1 [ispinesib]
How it was run: as §1

[9] = compound: C[C@H](Nc1ncnc2nc[nH]c12)c1cc2cccc(Cl)c2c(=O)n1-c1ccccc1 [duvelisib]
How it was run: as §1

[10] = compound: Cc1cc(Nc2cc(N3CCN(C)CC3)nc(Sc3ccc(NC(=O)C4CC4)cc3)n2)n[nH]1 [tozasertib]
How it was run: as §1

Measured: log2 fold change

BZW1 isoform 3 (UniProt Q7L1Q6)
inactive: [1] 0.007 | [2] -0.426 | [3] 0.007 | [4] 0.051 | [5] -0.189 | [6] 0.181 | [7] -0.008 | [8] -0.209

C11orf68 (UniProt Q9H3H3)
inactive: [1] 0.04 | [2] 0.02 | [3] -0.028 | [4] -0.064 | [9] 0.008 | [5] -0.1 | [10] -0.025 | [6] 0.047 | [7] -0.038 | [8] -0.023

C4BPA (UniProt P04003)
inactive: [1] 0.285 | [2] 0.78 | [3] 0.248 | [4] 0.084 | [5] 0.195 | [10] 0.193 | [7] 0.023

BUD13 (UniProt Q9BRD0)
inactive: [1] -0.072 | [2] -0.149 | [3] -0.36 | [4] 0.126 | [9] -0.107 | [5] 0.07 | [10] 0.099 | [6] -0.033 | [7] 0.206 | [8] -0.209

C1orf198 (UniProt Q9H425)
inactive: [1] -0.034 | [2] -0.087 | [3] -0.142 | [4] 0.05 | [9] 0.03 | [5] 0.013 | [10] -0.008 | [6] 0.057 | [7] 0.078 | [8] -0.061

CALB1 (UniProt P05937)
inactive: [1] 0.033 | [2] -0.166 | [3] 0.015 | [4] -0.039 | [5] -0.038 | [6] 0.017 | [7] -0.006 | [8] -0.105

C4A (UniProt P0C0L4)
inactive: [1] -0.096 | [2] 0.065 | [3] 0.088 | [4] 0.056 | [5] -0.375 | [6] 0.008 | [7] -0.153 | [8] -0.155

C9orf72 (UniProt Q96LT7)
inactive: [1] 0.058 | [2] -0.134 | [3] -0.024 | [4] -0.048 | [6] 0.057 | [7] 0.01 | [8] 0.04
active: [5] -0.313

BUB1B isoform 3 (UniProt O60566)
inactive: [1] -0.015 | [2] -0.108 | [3] 0.013 | [4] 0.083 | [5] -0.207 | [6] 0.057 | [7] 0.047 | [8] -0.072

C9orf85 isoform 1 (UniProt Q96MD7)
inactive: [1] -0.039 | [2] -0.124 | [3] 0.046 | [4] 0.024 | [9] 0.087 | [10] -0.01 | [6] -0.052 | [7] 0.113

CA8 (UniProt P35219)
inactive: [1] 0.003 | [2] -0.008 | [3] 0.117 | [4] -0.06 | [5] -0.064 | [6] 0.096 | [7] -0.066 | [8] 0.103

C22orf39 (UniProt Q6P5X5)
inactive: [1] 0.075 | [2] -0.303 | [3] 0.06 | [4] -0.057 | [6] -0.135 | [7] 0.072 | [8] -0.207

BTBD6 (UniProt Q96KE9)
inactive: [1] 0.117 | [3] 0.033 | [4] -0.308 | [5] 0.64 | [6] -0.061 | [8] 0.209

CALD1 (UniProt Q05682)
inactive: [1] -0.284 | [2] 0.08 | [3] -0.123 | [4] 0.045 | [5] -0.173 | [7] -0.096 | [8] -0.203

BTN2A1 (UniProt Q7KYR7)
inactive: [2] 0.158 | [3] -0.288 | [4] -0.019 | [9] 0.165 | [5] 0.194 | [10] 0.035 | [6] -0.11 | [7] -0.091 | [8] -0.022

C2orf76 (UniProt Q3KRA6)
inactive: [1] 0.052 | [9] 0.048 | [10] 0.03 | [6] 0.063

2 entries drawn at random from those above, as already listed:
BTN2A1 (UniProt Q7KYR7)
inactive: [2] 0.158 | [3] -0.288 | [4] -0.019 | [9] 0.165 | [5] 0.194 | [10] 0.035 | [6] -0.11 | [7] -0.091 | [8] -0.022

C2orf76 (UniProt Q3KRA6)
inactive: [1] 0.052 | [9] 0.048 | [10] 0.03 | [6] 0.063

Further records follow.

C6orf136 isoform 4 (UniProt Q5SQH8)
inactive: [1] 0.058 | [2] 0.064 | [9] 0.027 | [10] -0.03 | [6] 0.133 | [7] 0.149 | [8] -0.022

C1orf112 (UniProt Q9NSG2)
inactive: [1] 0.087 | [9] 0.103 | [5] -0.131 | [10] -0.048 | [6] 0.015

CAPN15 (UniProt O75808)
inactive: [1] 0.014 | [3] -0.141 | [5] 0.062

C11orf74 (UniProt Q86VG3)
inactive: [1] 0.031 | [2] -0.051 | [3] 0.002 | [5] 0.079 | [10] 0.022 | [7] -0.068

CA1 (UniProt P00915)
inactive: [1] 0.005 | [2] 0 | [3] 0.046 | [4] -0.094 | [5] -0.036 | [6] 0.019 | [7] -0.012 | [8] 0.116

C19orf53 (UniProt Q9UNZ5)
inactive: [1] -0.125 | [2] 0.092 | [3] -0.553 | [4] 0.404 | [5] 0.316 | [6] 0.03 | [7] 0.174 | [8] -0.13

CALM1 (UniProt G3V361)
inactive: [1] -0.051 | [9] -0.03 | [6] -0.121

CARD8 isoform 5 (UniProt Q9Y2G2)
inactive: [1] -0.112 | [2] 0.065 | [3] 0.001 | [9] 0.025 | [5] -0.045 | [10] 0.037 | [6] -0.004 | [7] -0.005 | [8] 0.034

C19orf54 (UniProt Q5BKX5)
inactive: [1] -0.026 | [2] 0.025 | [3] 0.182 | [4] 0.127 | [5] -0.073 | [6] 0.032 | [7] -0.061 | [8] -0.091

C16orf70 (UniProt Q9BSU1)
inactive: [1] 0.266 | [2] 0.014 | [3] -0.291 | [7] 0.049

BTK isoform 2 (UniProt Q06187)
inactive: [1] 0.124 | [3] -0.164 | [4] 0.633 | [9] -0.138 | [5] 0.212 | [10] -0.047 | [6] 0.258 | [7] 0.264 | [8] -0.346

C11orf24 (UniProt Q96F05)
inactive: [1] 0.036 | [2] -0.017 | [3] -0.048 | [7] 0.069 | [8] 0.025

C1orf50 (UniProt Q9BV19)
inactive: [1] 0.019 | [3] 0.08 | [4] -0.123 | [9] 0.245 | [5] 0.192 | [10] 0.02 | [6] 0.138 | [8] 0.075

C18orf32 (UniProt Q8TCD1)
inactive: [1] -0.037 | [3] -0.012 | [4] -0.065 | [5] 0 | [10] -0.032 | [8] 0.183

CAB39L (UniProt Q9H9S4)
active: [5] 0.448
inactive: [1] 0.13 | [2] 0.036 | [3] -0.01 | [6] 0.053 | [7] 0.024 | [8] -0.031

C1D (UniProt Q13901)
inactive: [1] -0.073 | [2] 0.06 | [3] -0.107 | [5] 0.01 | [7] -0.089 | [8] 0.007

CAMKK2 (UniProt Q96RR4)
inactive: [1] 0 | [2] 0.106 | [3] -0.045 | [4] -0.182 | [5] -0.221 | [6] 0 | [7] 0.086 | [8] -0.204
